From patent US20230203170A1 (DRAGONBOAT BIOPHARMACEUTICAL SHANGHAI, published 2023)
These are yes or no findings as the source states them, for the method shown. Some results given as binding are weak or reduced against the parent protein; the word gives no strength.

Protein sequences, listed by entry. Tags and fused reporters are not part of them. Lines headed by an entry give the natural chain unless they say otherwise; changes in a name come on top. Residues count along the entry.
UniProt P07333: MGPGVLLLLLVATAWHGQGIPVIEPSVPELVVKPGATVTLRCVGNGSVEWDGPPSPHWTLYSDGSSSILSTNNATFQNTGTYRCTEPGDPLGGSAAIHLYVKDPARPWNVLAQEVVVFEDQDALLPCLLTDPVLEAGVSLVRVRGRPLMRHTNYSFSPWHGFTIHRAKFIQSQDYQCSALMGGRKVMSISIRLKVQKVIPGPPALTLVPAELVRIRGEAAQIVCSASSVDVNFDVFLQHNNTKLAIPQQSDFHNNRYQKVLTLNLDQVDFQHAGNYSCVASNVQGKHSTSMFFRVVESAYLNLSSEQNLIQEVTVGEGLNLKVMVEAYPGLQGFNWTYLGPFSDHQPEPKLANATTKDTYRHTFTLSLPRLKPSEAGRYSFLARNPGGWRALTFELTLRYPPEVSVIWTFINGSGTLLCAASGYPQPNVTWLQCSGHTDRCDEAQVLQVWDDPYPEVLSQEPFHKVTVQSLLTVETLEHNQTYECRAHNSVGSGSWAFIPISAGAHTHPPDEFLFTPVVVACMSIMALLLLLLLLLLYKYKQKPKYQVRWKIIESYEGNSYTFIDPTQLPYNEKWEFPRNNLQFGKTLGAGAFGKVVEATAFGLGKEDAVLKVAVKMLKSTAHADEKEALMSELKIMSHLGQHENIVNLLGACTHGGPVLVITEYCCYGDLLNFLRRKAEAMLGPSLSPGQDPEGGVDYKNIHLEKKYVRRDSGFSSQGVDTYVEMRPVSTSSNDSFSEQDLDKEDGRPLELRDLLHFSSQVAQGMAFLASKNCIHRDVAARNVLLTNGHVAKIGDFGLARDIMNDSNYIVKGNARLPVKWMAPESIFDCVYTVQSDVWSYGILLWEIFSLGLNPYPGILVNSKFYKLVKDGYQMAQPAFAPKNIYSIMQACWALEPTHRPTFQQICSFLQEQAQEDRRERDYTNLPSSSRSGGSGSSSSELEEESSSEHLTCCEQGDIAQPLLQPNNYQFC
full-length human CSF-1R expressed on cells: residues 20-972 of P07333
human CSF1R-His (Acrobiosystem, CSR-H5228): residues 20-512 of P07333

Columns and labels:
[1] = biological target: full-length human CSF-1R expressed on cells (human) (UniProt P07333); assay: flow cytometry on transfected HEK293F cells, IgG at 100 nM
[2] = biological target: full-length human CSF-1R expressed on cells (human) (UniProt P07333); assay: flow cytometry on HEK293F cells transiently expressing full-length human CSF-1R (IRES-EGFP vector), IgG at 100 nM, Alexa Fluor 647 anti-human Fc detection [Conti.]
[3] = biological target: human CSF1R-His (Acrobiosystem, CSR-H5228) (human) (UniProt P07333); assay: ForteBio; TAC2205 binds CSF1R-His held by immobilised TAC2188

Measured: binding

B1: TAC2205 (antibody, human IgG4, V domains shown)
VH: QVQLVQSGAEVKKPGSSVKVSCKASGYTFTDNYMIWVRQAPGQGLEWMGDINPYNGGTTFNQKFKGRVTITADKSTSTAYMELSSLRSEDTAVYYCARESPYFSNLYVMDYWGQGTLVTVSS
VL: EIVLTQSPATLSLSPGERATLSCKASQSVDYDGDNYMNWYQQKPGQAPRLLIYAASNLESGIPARFSGSGSGTDFTLTISSLEPEDFAVYYCHLSNEDLSTFGGGTKVEIK
binds: all assays above
